Data published in PubChem BioAssay AID1347423 (Functional Genomics Laboratory (NCATS/FGL), 2020).
The whole screen tested about 52,000 sequences, of which about 210 (0.4%) were called active.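 How the source made its calls: active means gene whose silencing raises cell survival under the drug, median off-target-corrected z-score across its silencing RNAs 2 or more; inactive means the rest.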 The list shows a part of the results.

Assay: Resistance to Poly (ADP-Ribose) Polymerase inhibitor: Gene Identification via Genome-wide siRNA Screen
Conditions: mouse BRCA2 R2336H ES cells, olaparib, CellTiter-Glo viability; stronger effect = higher value
Outline: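 Mouse BRCA2 R2336H ES cells were reverse-transfected with siRNA (20 nM final), treated at 48 h with 500 nM olaparib, and read by CellTiter-Glo after 72 h. Scores: MAD-based z per siRNA, median per gene, seed off-target correction.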

Sequence	z-score
GGUGAAGGUUAAAGAUAUUTT against Pcdha1	inactive: 0.263
CCUUCUGUUGCUUAUACAUTT against 3110005G23Rik	inactive: 0.123
GGAGUUUGCCAGUGAAUUUTT against Ptpn8	inactive: 0.67
GGGAUUUCAUAACUGCACUTT against Btrc	inactive: 0.784
GCUUUGAUUCAUAAACAAGTT against 4932432N11Rik	inactive: 1.22
GGCUGGGUUCCAAAAUACUTT against Crbn	inactive: 0.0863
GCAAAAACGCAAGAUCUUCTT against 1110060O18Rik	inactive: 0.246
GGAGAUUGUUGACCUGGUCTT against Tuba7	inactive: 0.808
GGUGAAGAUAAGUAUCUGCTT against Mug2	inactive: 1.3
GGUUCUGUAUUUAUCUUAGTT against Olfr448	inactive: 0.0801
GGCUAACUCCUUAAAACCUTT against Pycs	inactive: -2.19
GUACAAGCUCAAGUGCUCGTT against BC035954	inactive: -0.0504
GGGACUGUACCCAGUUUAATT against Ccl27	inactive: 1.79
GGCAACGGAAUUCCUUAAGTT against Dapk1	inactive: 3.06
GUCUUUGGAAAUCUACUCATT against Olfr1189	inactive: -1.52
CCAAUACCAUGACAUUGGGTT against Fabp1	inactive: 0.34
CCAGAAUGCUAGACACUGCTT against Aplra1	inactive: -0.592
GGAUGAGCAAUAAUAGAAUTT against Ott	inactive: -1.97
GGAGAUUGAGGCACUGAAGTT against Srms	inactive: 0.603
GGACACCAAUCACAUUUGATT against Cngb3	inactive: -0.644
GGGCUUUGUUCGUGGUACATT against C030039L03Rik	inactive: 1.88
GCGCAGACUUACAAUUAUUTT against Bms1l	inactive: -2.53
GCUAGGUCAGGGAGUUUUATT against Exosc2	inactive: -0.802
GGACUGAACUUCUCAAUGUTT against Folr1	inactive: 1.12
GGAGUGGACAAUUUCUUUATT against B230374F23Rik	inactive: -0.261
CCAUAUUUCGCUAUGGUGCTT against C87436	inactive: 1.25
GGCUUUGGACUGUAUGACCTT against 2510048L02Rik	inactive: -0.361

Two records drawn at random from those above:
Sequence	z-score
GGCUUUGGACUGUAUGACCTT against 2510048L02Rik	inactive: -0.361
CCAAUACCAUGACAUUGGGTT against Fabp1	inactive: 0.34

(cont.)

Sequence	z-score
GGACAGUAUAGUGGAGAUCTT against Fgf22	inactive: -1.71
GGGUGAAAACUCAUUUUAUTT against St6gal2	inactive: 2.21
GGAUGAUUGCUGACGUGGATT against Bax	inactive: 2.19
GCUGUACUAUGCUAAAAGGTT against Ghr	inactive: 1.18
GCAAACUUAAAGUGUCUCUTT against Ewsr1	inactive: 0.349
GCCUUCAUCACUUACACGUTT against Sstr5	inactive: 1.13
GGCUCAGAUCAGAACUACGTT against Inpp4a	inactive: -0.175
GGUGAAAUCCAGGAGUUUUTT against Rhoe	inactive: 1.48
GGCUCAAGGCAUUGAAGGATT against 1810042K04Rik	inactive: -0.255
GGACCAGCAAACUAAGAGATT against 4930449I24Rik	inactive: -0.257
CCCUCGGUAGCAAUAUAAATT against Ncoa2	inactive: 2.14
GGUCAAGGAGUUCAUUCUGTT against Matn2	inactive: 0.198
GCUAAGAAGCAGACUUCAUTT against D6Wsu116e	inactive: -2.37
GCUGGGUAAAUACCAGCAATT against Slc6a14	inactive: 1.01
GGCUGCAUUUCCAAAUGAUTT against 4933405K07Rik	inactive: 0.239
CGUACAACCCAGGAGUUCUTT against Phxr1	inactive: 0.732
GCCAAAUCAGGAACAGCACTT against Trim29	inactive: 1.36
CCCUGUAUAUAUGAUGACATT against Ldhd	inactive: -2.2
GAUGAAUACAUGGAGUCUCTT against C1qtnf3	inactive: 0.788
GGAGGUAAAGGAAAACUCUTT against Fmo1	inactive: -1.2
GCUGCUGUCCUAAACUUUCTT against BC056474	inactive: -0.669
GCCAUGUUUCUGAGAACUUTT against Slc27a3	inactive: -0.738
GGGAAAGAUAAGCUCAAGGTT against Sh2d2a	inactive: 1.58
GGACAAAGAAUUUCAACAATT against Gsg1	inactive: 1.14
CGGGCUGAAUGUGUUUGUGTT against E130304D01	inactive: 0.71
GCAACUGUGAACCAGUUGUTT against F730014I05Rik	inactive: 0.631
GCCUGCAUAUGAAACAGUATT against 2410066E13Rik	inactive: -0.543

At a glance, part of the list above.
Sequence	z-score
GCAAACUUAAAGUGUCUCUTT against Ewsr1	inactive: 0.349
GCCUUCAUCACUUACACGUTT against Sstr5	inactive: 1.13

Continued:

Sequence	z-score
GCUAAAUUCUUUCCUGAAGTT against Rdx	inactive: -0.0169
GCUGUCCACUGCUUAAAUCTT against Isyna1	inactive: 0.392
GCCAAUCAAAUCAACCAUATT against Ddx26	inactive: 1.1
CGUACUCUUUCUUUAAUCCTT against Umod	inactive: -0.057
GCGGACAUGAGUUUGAAUGTT against Bnipl	inactive: 0.816
CGACCUGUGGGUUAACCCATT against DXBwg1396e	inactive: 0.18
GGAUGAGAUGGGAAUUGUATT against Otor	inactive: -1.1
GGGAGAACACAAACAGAAATT against Dab1	inactive: 3.81
CCAAAACUUCCUGUGGUUCTT against 4930538D17Rik	inactive: -0.932
CCUGCUUCGAAAGAUCUCCTT against Serpina10	inactive: 0.167
GGCUCUGAAAGAGCUAAAATT against 2810002D13Rik	inactive: 1.21
AUGAAAACCAUUCCCAAUUTT against Olfr435	inactive: 3.18
CGGCCACUAUAUGACAUUATT against Upk3b	inactive: -0.0137
GGCAUUCAGAAAUCCAGUATT against Zdhhc2	inactive: -0.452
GGAUAGCAACCAGUUUCAUTT against Mvd	inactive: 0.127
GCUCUGUCUUAAGAGACUATT against Smo	inactive: 0.338
CCUAAGUUAUUGUUAACUGTT against Gata2	inactive: 0.507
GCUACGUUAAAAGCAAUAATT against A230078I01Rik	inactive: -0.101
GCAUAGUCAAGGUCAGAUCTT against AI790205	inactive: 0.656
GGUUGUCCGGAUUGCUUGUTT against Olfr734	inactive: -3.02
GGAGAUUAACCCACAAACUTT against Rps6ka3	inactive: 1.68
CGAAGUCUAGCAGAACUCUTT against Kcne1l	inactive: -0.928
GCAUCAACUCCUGAGCUCUTT against Stra13	inactive: -1.64
CCAAGUGGAUCCCGCUUGUTT against Rhot2	inactive: 0.871
GGUGUAUUGAGCUAAACAUTT against B830028P19Rik	inactive: 1.07
CCCAUUCUGUAUAUAGUGCTT against Adam6	inactive: 0.77
GGGCUCUGAAUUGAAGAAATT against Ralgps2	inactive: -1.58

Sequence	z-score
GGUCACCAAGCAACACAAUTT against Fen1	inactive: 0.939
GGAGAAACCUAAAGACAUATT against Mocs2	inactive: -1.29
GGGAUCUUUCCAGAGUUUGTT against Prp15	inactive: 1.45
GGAAAGCUAAGGCUGUACUTT against 1700010H15Rik	inactive: -1.59
CCUUGUCUGGCAACAUCGATT against Cpt1c	inactive: 0.33
GGAGCACAGUUUUGGUGCUTT against Olfr576	inactive: 4.43
GGUGGAUCCAGACCAAGUCTT against Cecr5	inactive: -1.89
GGGUCCAUUCUGAGAACAATT against Pftk1	inactive: -1.32
GGAGAACAAGUUGUCUGUCTT against Olfr118	inactive: -2.68
GGAAGAAGCAGCAAGAAGATT against 9130422G05Rik	inactive: 0.938
GCUAAGUUGCUUUUCAGUGTT against Hist1h4i	inactive: -0.0874
CGUAUAACUAAUGAUGCCATT against Snap23	inactive: 0.621
GGUUCUACUCUAUCAAGGATT against Cias1	inactive: 1.03
GCGAUCUAGUUUCAUUAAATT against Prp19	inactive: -1.52
UGUCUGGAAACCAACAAGGTT against Prb1	inactive: -1.8
GCAUCUACCUAUAAUGAAUTT against 1700020O03Rik	inactive: 1.39
CCUCAUCCAACAUACCUAUTT against Olfr665	inactive: 2.27
GGAAGGAGAACAUUCCUUUTT against Ces3	inactive: -0.132
CGGUGAUAACUUCAAGACGTT against Rbp2	inactive: 0.434
GGAUUCACUAGCAUUGUAGTT against Guca1b	inactive: -2.13
GCCAGUUCACCUGAUCUUATT against 2610507B11Rik	inactive: -0.193
GGUUAAAAGAGGAGAUGUUTT against Ttc1	inactive: -2.69
GGGCCUAGUAACUAUCAAGTT against 9930016F01Rik	inactive: 0.368
GGCUUUUCAAUAUAGUUCCTT against Reg3a	inactive: -0.737
